Experimental data published in PubChem BioAssay AID1487 (National Center for Advancing Translational Sciences (NCATS), 2009).
The campaign covered roughly 200,000 compounds. About 25 (0.01%) were called active. Inconclusive means that the source gave no clear call. Such entries were picked first, then a sample of the others. Calls follow the shape of the dose curve; as a rule, active = well fitted inhibition curve with a large enough effect in the signal ratio, with a control signal flat (not every such curve was filed as active); inconclusive = small, poorly fitted or top-dose-only effect, or effect the other way, or a change in a side signal; inactive = flat fitted curve, though single readings scatter; the % refers to the signal ratio. Potencies beside an inconclusive call are fits to weak or partial responses and may not hold up.
% is scaled to controls: 0 for no effect and ±100 for the full control effect; potency is read from the fitted curve at half-maximal effect.

Experiment: qHTS Assay for Modulators of Lamin A Splicing
Details: HeLa LMNA splicing GFP/RFP minigene ratio, 48 h; ratio change, negative = inhibition: at 46.1 µM (top of the series) unless noted
Outline: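 Read-out is the ratio of GFP to DsRed2 object intensity, acquired by 488 nm laser-scanning cytometry on HeLa lamin A-EGFP minigene reporter cells. Compound incubation 48 hrs at 37 °C in Opti-MEM with 2% FBS; DMSO 0.5% final.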
With `COC(=O)Nc1ccc2c(c1)N(C(=O)CCN1CCOCC1)c1ccccc1S2` the ratio change, negative = inhibition was inconclusive: -45.1%. With `COC(=O)c1ccc(C2C(C(=O)OC(C)C)=C(C)N=C3SCCC(=O)N32)cc1` (stereo unspecified) the ratio change, negative = inhibition was “inactive”. With `COc1ccc(C(=O)Nc2nc3c(s2)Cc2cc(OC)ccc2-3)cc1` the ratio change, negative = inhibition was “inactive”. With `Cc1ccc2c(c1)N(C(=O)N1CCC(C(=O)NCc3ccccc3F)CC1)CC(C)O2` (stereo unspecified) the ratio change, negative = inhibition was inconclusive: 22.8% [at 46 µM]. With `Nc1c(C(=O)c2ccccc2)sc(Nc2ccc(Cl)c(Cl)c2)c1C(=O)Nc1ccccc1` the Potency was inconclusive: 11.2 µM [inhibitor, partial curve, poor fit]. For `Cc1ccc(-n2c(SCC(=O)Nc3ccc4c(c3)OCCO4)nnc2-c2ccco2)cc1`, the ratio change, negative = inhibition was inconclusive: 6.17%. For `COc1ccc(OC)c(NC(=O)N2CCN(Cc3nc4ccc(C)cc4o3)CC2)c1`, the ratio change, negative = inhibition was “inactive”. With `Cc1cccc(OCCCn2c(CCNC(=O)C(C)C)nc3ccccc32)c1` the Potency was inconclusive: 35.5 µM [fluorescent, single point]. With `O=C(COc1ccc(F)cc1)Nc1ccc(Cl)c(-c2nc3ccccc3[nH]2)c1` the ratio change, negative = inhibition was inconclusive: -52% [at 46 µM]. For `Cc1sc2nc(SCC(=O)NCc3ccco3)n(C)c(=O)c2c1C`, the ratio change, negative = inhibition was inconclusive: -6.85%. With `COc1ccccc1NC(=O)CCSc1nnc(-c2ccco2)o1` the ratio change, negative = inhibition was inconclusive: -4.97% [at 46 µM]. In the case of `O=C(CSCc1ccccn1)Nc1ccccc1`, the ratio change, negative = inhibition is reported as “inactive”. In the case of `Cc1ccc(Cl)cc1NS(=O)(=O)c1ccc(N2CCCCS2(=O)=O)cc1`, the ratio change, negative = inhibition is reported as inconclusive: 4.5% [at 46 µM]. For `CC1(OC(=O)CCc2ccccc2)C(=O)C=C2C=C(c3ccc(C#N)cc3)N(C3CC3)C=C2C1=O` (stereo unspecified), the ratio change, negative = inhibition was inconclusive: -12.5% [at 9.22 µM]. For `O=C(Nc1cccc(Cl)c1N1CCCCC1)c1ccc2c(c1)OCCO2`, the ratio change, negative = inhibition was inconclusive: -10.3%. With `O=C(Oc1ccc2ccccc2c1Br)N1CCCCCC1` the ratio change, negative = inhibition was inconclusive: -4.36%. In the case of `COc1cccc(C2C3=C(N=c4s/c(=C\c5cccc(O)c5)c(=O)n42)c2ccccc2CC3)c1OC` (stereo unspecified), the Potency is reported as inconclusive: 31.6 µM [inhibitor, single point]. In the case of `C/C(N)=C(/C#N)C(=O)COC(=O)C1CCN(C(=O)c2ccc(Cl)cc2)CC1`, the ratio change, negative = inhibition is reported as inconclusive: -3.39% [at 46 µM]. With `CSc1ccc(C(=O)C2CCCN(C(=O)c3cccnc3SC)C2)cc1` (stereo unspecified) the ratio change, negative = inhibition was “inactive”. In the case of `Cc1cc(C)cc(NC(=O)c2cnc3sc(N4CCCC4)nn3c2=O)c1`, the ratio change, negative = inhibition is reported as inconclusive: 5.13% [at 46 µM]. With `N#Cc1ccc(-c2ccco2)nc1SCC(=O)c1ccc(Cl)cc1` the ratio change, negative = inhibition was inconclusive: 7.4%. In the case of `Cc1cc2nc(CS(=O)(=O)c3ccccc3)cc(=O)n2[nH]1`, the ratio change, negative = inhibition is reported as “inactive”. With `Clc1ccc(Cn2ncc3c(NCc4cccnc4)ncnc32)cc1` the Potency was inconclusive: 14.1 µM [fluorescent, single point]. With `CN(C)c1ccc(/C=C2/SC(=O)N(CCN=C3NS(=O)(=O)c4ccccc43)C2=O)cc1` the ratio change, negative = inhibition was inconclusive: 2.22%. In the case of `Cc1cc(/C=N/NC(N)=S)c(C)n1-c1ccc(Br)cc1`, the ratio change, negative = inhibition is reported as inconclusive: 12.4% [at 46 µM]. For `CCC1CCCCN1S(=O)(=O)c1cc(C(=O)Nc2ccc(C)c(F)c2)ccc1F` (stereo unspecified), the ratio change, negative = inhibition was inconclusive: -10% [at 46 µM]. In the case of `CCCCc1nn2c(=O)cc(COC(=O)c3ccc(NC(=O)C(CC)CC)cc3)nc2s1`, the ratio change, negative = inhibition is reported as “inactive”. For `CC(C)(C)C(=O)Nc1ccccc1C(=O)Nc1ccncc1`, the ratio change, negative = inhibition was “inactive”. For `Cc1cc(C)cc(-n2cnc3cc(C(=O)O)ccc32)c1`, the ratio change, negative = inhibition was “inactive”. For `Cc1ccc(C(=O)COC(=O)C(Cc2c[nH]c3ccccc23)NC(=O)c2ccc(C(C)(C)C)cc2)cc1` (stereo unspecified), the ratio change, negative = inhibition was “inactive”. For `COCCn1c(C)cc(C(=O)COc2nc3ccccc3nc2C)c1C`, the Potency was inconclusive: 10 µM [falling, partial curve]. With `O=C(NNC(=S)NC1CCCCC1)c1cccs1` the ratio change, negative = inhibition was inconclusive: -26.2%. With `Cc1cc(/C([O-])=C(/C(=S)Nc2ccc(F)cc2)[n+]2ccccc2)c(C)n1-c1ccc(F)cc1` the ratio change, negative = inhibition was inconclusive: -17.7%. In the case of `Cc1nc(NCCCO)c(C#N)c2c1COC(C)(C)C2`, the ratio change, negative = inhibition is reported as “inactive”. For `CN(C)CCOC(c1ccccc1)c1ccccc1` (tested in a mixture with another compound), the ratio change, negative = inhibition was inconclusive: -35.8% [at 46 µM]. In the case of `COc1ccc(OC)c(CNC(=O)c2cnc3c(C)cccn3c2=O)c1`, the ratio change, negative = inhibition is reported as inconclusive: 12.7% [at 46 µM]. In the case of `CCCCN(CCCNC(=O)CN1N=C(c2ccc(C)cc2)CCC1=O)c1ccccc1`, the ratio change, negative = inhibition is reported as inconclusive: -23.3% [at 46 µM]. In the case of `O=S1(=O)C=C(Oc2ccc3ccccc3c2)c2ccccc21`, the Potency is reported as inconclusive: 0.0316 µM [inhibitor, single point]. For `O=C(CSc1ncnc2c1oc1ccccc12)OCc1ccccc1`, the ratio change, negative = inhibition was “inactive”. With `CC1CCC/C(=N/NC(=O)c2ccccc2-n2cccc2)C1` (stereo unspecified) the ratio change, negative = inhibition was “inactive”. With `COc1cc(C(=O)O/N=C(\N)Cc2ccc([N+](=O)[O-])cc2)cc(OC)c1OC` the Potency was inconclusive: 35.5 µM [activator, single point]. For `O=S(=O)(Cc1ccccc1)c1cnc2ccccc2n1`, the Potency was inconclusive: 6.31 µM [inhibitor, partial curve]. In the case of `CCOC(=O)c1ccc(NC(=O)Cn2nnc(-c3ccccc3F)n2)cc1`, the ratio change, negative = inhibition is reported as inconclusive: 1.04%. In the case of `Fc1ccc(Nc2nc(-c3ccncc3)cs2)cc1`, the ratio change, negative = inhibition is reported as inconclusive: -17.7% [at 46 µM]. In the case of `CCN(CCCc1ccccc1)CCCc1ccccc1`, the ratio change, negative = inhibition is reported as inconclusive: -5.5%. With `Cc1cc(C(=O)N/N=C2\CC(=O)CC(C)(C)C2)c(C)n1-c1ccccc1` the Potency was inconclusive: 35.5 µM [fluorescent, single point]. In the case of `COc1ccccc1N1CCN(CC(=O)Nc2ccc(C)c(F)c2)CC1`, the ratio change, negative = inhibition is reported as inconclusive: 5.49%. In the case of `COc1ccccc1-c1cnnc(N/N=C/c2ccc(-c3cccc(Br)c3)o2)n1`, the ratio change, negative = inhibition is reported as “inactive”. In the case of `CCOc1ccc(C(C)=O)cc1COc1ccc(-n2cnnn2)cc1`, the ratio change, negative = inhibition is reported as “inactive”. For `CC(=O)N1CCCc2cc(S(=O)(=O)NC(C(=O)NC3CCCCC3)C(C)C)ccc21` (stereo unspecified), the ratio change, negative = inhibition was inconclusive: -3.36%. In the case of `CCc1ccc(CN2CCc3nc(N4CCN(c5ccccc5F)CC4)ncc3C2)cc1`, the ratio change, negative = inhibition is reported as “inactive”. In the case of `CCN(CC)S(=O)(=O)c1ccc(N2CCCC2)c(NC(=O)c2ccncc2)c1`, the ratio change, negative = inhibition is reported as inconclusive: 16.1% [at 46 µM]. In the case of `COc1ccc(-c2noc(CCC(=O)N3CCC(C)CC3)n2)cc1`, the ratio change, negative = inhibition is reported as “inactive”. With `c1ccc2c(c1)OCC(c1nnc3sc(-c4cnccn4)nn13)O2` (stereo unspecified) the ratio change, negative = inhibition was “inactive”. For `O=C(c1cccc(Cl)c1)N1CCN(C(=O)c2ccccc2F)CC1`, the ratio change, negative = inhibition was “inactive”. In the case of `Cc1ccc(C(=O)CN2/C(=C(\O)c3ccccc3)C(=O)c3ccccc3S2(=O)=O)c(C)c1`, the Potency is reported as inconclusive: 7.94 µM [inhibitor, partial curve]. In the case of `O=C1C2CCCN2C(c2ccccc2)N1c1ccc(Cl)cc1` (stereo unspecified), the Potency is reported as inconclusive: 12.6 µM [falling, partial curve]. In the case of `O=C(N/N=C/c1ccc(O)c([N+](=O)[O-])c1)C1CC1(c1ccccc1)c1ccccc1` (stereo unspecified), the ratio change, negative = inhibition is reported as “inactive”. In the case of `COC(=O)c1sccc1NC(=O)C1CC=CCC1C(=O)O` (stereo unspecified), the ratio change, negative = inhibition is reported as “inactive”. In the case of `CCOC(=O)C1CCN(C(=O)c2ccc3c(c2)OCO3)CC1`, the ratio change, negative = inhibition is reported as inconclusive: 4.56%. With `CCOC(=O)c1sc(N)nc1-c1ccccc1` the ratio change, negative = inhibition was “inactive”. With `COc1ccc2c(c1)CC(C(=O)NCCCN1CCN(c3cccc(Cl)c3)CC1)CO2` (stereo unspecified) the ratio change, negative = inhibition was inconclusive: -21.4% [at 46 µM]. In the case of `COc1cc2c3c(c1)-c1c(sn(-c4cc(OC)ccc4OC)c1=S)C(C)(C)N3C(=O)C2=O`, the Potency is reported as inconclusive: 35.5 µM [rising, single point]. In the case of `CCOc1ccc(C(=O)Nc2nncs2)cc1OCC`, the ratio change, negative = inhibition is reported as “inactive”. In the case of `O=C(Cn1c(=O)nc(-c2ccccc2)c2cc(Cl)ccc21)N1CCN(c2ccccc2F)CC1`, the ratio change, negative = inhibition is reported as inconclusive: 13.9% [at 46 µM]. With `COc1ccc(NC(=O)c2ccc3nccnc3c2)cc1` the ratio change, negative = inhibition was “inactive”. With `CC(C)C1C(=O)Nc2ccc(S(=O)(=O)NCCc3ccc(Cl)cc3)cc21` (stereo unspecified) the ratio change, negative = inhibition was “inactive”. With `Cc1cc(N2CCN(C)CC2)nc2ccc(NC(=O)Nc3cccc(Cl)c3)cc12` the Potency was inconclusive: 11.2 µM [inhibitor, single point]. For `COc1cccc(NS(=O)(=O)c2c(C)cc(C)cc2C)c1`, the Potency was inconclusive: 35.5 µM [falling, single point]. For `CCc1nnc(NC(=O)CN2CCOCC2)s1`, the ratio change, negative = inhibition was “inactive”. In the case of `Cc1ccccc1C(=O)OCc1cc(=O)n2nc(C(C)C)sc2n1`, the ratio change, negative = inhibition is reported as “inactive”. For `CN(c1ccccc1C(=O)Nc1ccc(S(=O)(=O)N2CCCC2)cc1)S(C)(=O)=O`, the ratio change, negative = inhibition was “inactive”. In the case of `Cc1cc(C)n2nc(SCC(=O)N/N=C/c3cccc(Br)c3)nc2n1`, the ratio change, negative = inhibition is reported as inconclusive: 8.62%. For `CCOc1cc(/C=N/O)cc(Br)c1OCc1ccc(Cl)cc1`, the Potency was inconclusive: 35.5 µM [cytotoxic, single point]. For `CC(Nc1cc(N2CCN(C(=O)C(C)(C)C)CC2)ccc1[N+](=O)[O-])c1ccccc1` (stereo unspecified), the ratio change, negative = inhibition was inconclusive: 43.7%. In the case of `CC1CCCCN1C(C(=O)O)c1ccccc1` (stereo unspecified), the ratio change, negative = inhibition is reported as inconclusive: 12.5% [at 46 µM]. In the case of `O=C(NNc1ccc(Cl)cc1)C1CCC1`, the ratio change, negative = inhibition is reported as inconclusive: 46.1% [at 46 µM]. With `O=C(O)c1cccc(N2C(=O)C3CC=C(Cl)CC3C2=O)c1` (stereo unspecified) the ratio change, negative = inhibition was “inactive”. For `O=C(NCCc1ccccc1)C1CCN(Cc2cc3ccccc3n2Cc2cccc(Cl)c2)CC1`, the ratio change, negative = inhibition was inconclusive: -17.3% [at 46 µM]. In the case of `O=C(Nc1ccccc1)c1ccc(Br)c(S(=O)(=O)Nc2cccnc2)c1`, the ratio change, negative = inhibition is reported as inconclusive: -9.77%. In the case of `COc1cccc(Nc2sc(C(=O)c3ccc(Cl)cc3)c(N)c2C(=O)NCc2ccc(C)cc2)c1`, the ratio change, negative = inhibition is reported as inconclusive: 8.91% [at 46 µM].
